In PMC10201424:
For at least one entry, the source does not settle the construct or the ends of the probe. Weaker means in comparison with the reference protein, sequence or condition of that experiment. For part of these data: At least one verdict was read from the data and is not stated in words by the source. For part of these data: Protein sequences can lack the tags named with them.

Columns and labels:
Assay in all cases: EMSA
[1] = biological target: T1, Mer3 (Saccharomyces cerevisiae) (UniProt P51979); conditions: EMSA: 25 mM HEPES pH 7.5, 0.1 ug/ul BSA, 60 mM NaCl, 10 nM DNA, 20 min at 30 C, 0.8% agarose in 1x TAE, Mer3 37.5-300 nM, Mlh1-Mlh2 20-150 nM, recombinant protein, residues 1-1187, protein details: C-terminal Twin-StrepII
T1 sequence (looked up): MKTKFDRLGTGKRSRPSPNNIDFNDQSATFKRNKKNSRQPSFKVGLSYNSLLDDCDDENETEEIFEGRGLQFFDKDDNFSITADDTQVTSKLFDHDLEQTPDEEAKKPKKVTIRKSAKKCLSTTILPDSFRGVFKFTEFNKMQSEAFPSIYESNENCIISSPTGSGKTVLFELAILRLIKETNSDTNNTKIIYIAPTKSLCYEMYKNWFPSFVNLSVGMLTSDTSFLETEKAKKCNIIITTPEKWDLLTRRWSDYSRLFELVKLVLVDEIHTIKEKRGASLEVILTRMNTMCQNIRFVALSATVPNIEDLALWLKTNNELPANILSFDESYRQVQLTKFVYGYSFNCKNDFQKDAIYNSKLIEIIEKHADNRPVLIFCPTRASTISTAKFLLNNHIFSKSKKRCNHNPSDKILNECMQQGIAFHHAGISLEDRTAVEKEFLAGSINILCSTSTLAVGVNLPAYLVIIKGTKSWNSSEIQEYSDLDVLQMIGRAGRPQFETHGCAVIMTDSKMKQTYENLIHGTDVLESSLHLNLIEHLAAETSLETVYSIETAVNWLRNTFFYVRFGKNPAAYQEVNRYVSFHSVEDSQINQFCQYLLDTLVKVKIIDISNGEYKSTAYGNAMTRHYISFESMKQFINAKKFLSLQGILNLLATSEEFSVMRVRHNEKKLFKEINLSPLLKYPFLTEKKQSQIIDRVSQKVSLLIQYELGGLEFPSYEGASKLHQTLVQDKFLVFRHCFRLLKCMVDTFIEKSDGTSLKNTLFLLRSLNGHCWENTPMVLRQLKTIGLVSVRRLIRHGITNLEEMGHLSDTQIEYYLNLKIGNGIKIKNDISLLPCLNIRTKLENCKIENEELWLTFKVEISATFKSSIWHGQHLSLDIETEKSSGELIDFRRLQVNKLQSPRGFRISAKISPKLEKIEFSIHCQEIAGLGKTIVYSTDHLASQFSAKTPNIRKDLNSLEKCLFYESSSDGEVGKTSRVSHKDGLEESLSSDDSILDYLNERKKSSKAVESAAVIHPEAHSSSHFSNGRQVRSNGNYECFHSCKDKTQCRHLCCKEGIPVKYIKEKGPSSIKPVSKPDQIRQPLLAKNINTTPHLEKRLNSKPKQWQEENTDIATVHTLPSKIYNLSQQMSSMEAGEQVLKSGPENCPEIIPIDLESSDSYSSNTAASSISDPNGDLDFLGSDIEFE

His-Mlh1 + Strep-Mlh2 = conditions: more limited binding than D-loop, EMSA: 25 mM HEPES pH 7.5, 0.1 ug/ul BSA, 60 mM NaCl, 10 nM DNA, 20 min at 30 C, 0.8% agarose in 1x TAE, Mer3 37.5-300 nM, Mlh1-Mlh2 20-150 nM, recombinant protein, protein details: N-terminal 6xHis,N-terminal Twin-StrepII
MBP-Mlh1 + MBP-Mlh2 = conditions: more limited binding than D-loop, EMSA: 25 mM HEPES pH 7.5, 0.1 ug/ul BSA, 60 mM NaCl, 10 nM DNA, 20 min at 30 C, 0.8% agarose in 1x TAE, Mer3 37.5-300 nM, Mlh1-Mlh2 20-150 nM, recombinant protein, protein details: N-terminal 6xHis-MBP,N-terminal 6xHis-MBP
[2] = label: 5'-FAM, single-stranded DNA

GGGTCAACGTGGGCAAAGATGTCCTAGCAATGTAATCGTCTATGACGTT / TGCCGAATTCTACCAGTGCCAGTGATGGACATCTTTGCCCACGTTGACCC [Y-form (1253-T/1254)]
binding result ([1]; ssDNA and D-loop stated as highest affinity, label: 5'-FAM on strand 1): binds more weakly

TGGGTCAACGTGGGCAAAGATGTCCTAGCAATGTAATCGTCTATGACGTT (double strand) [dsDNA (1253/1253C)]
binding result (His-Mlh1 + Strep-Mlh2; label: 5'-FAM on strand 1): binds more weakly | binding result (MBP-Mlh1 + MBP-Mlh2; label: 5'-FAM on strand 1): binds more weakly

TGGGTCAACGTGGGCAAAGATGTCCTAGCAATGTAATCGTCTATGACGTT [ssDNA 1253]
binding result (His-Mlh1 + Strep-Mlh2; [2]): binds more weakly | binding result (MBP-Mlh1 + MBP-Mlh2; [2]): binds more weakly | binding result ([1]; no Mg or ATP, high affinity, label: 5'-FAM, single-stranded DNA): binds
